Most values lie at the floor of the assay. Slopes are relative: functional sequences can read slightly below zero.
test system: Saccharomyces cerevisiae PS128 hsf1 delta, HSF1(1-493) fusion; experiment: growth estimate (transactivation domain function in HSF1 fusion, heat-shock survival) (a.u. (slope of normalised read count over time)); higher = stronger growth at 37°C, i.e. more transactivation activity; settings: library: random library

Row | Substance | growth estimate
1 | SRVGKVIGC | < -0.25
2 | SRVK | < -0.25
3 | SRVRCMDGPHPSRLDACRIA | < -0.25
4 | SRVVDYYLGMQWPCLGCN | < -0.25
5 | SRYGCFRISEERTIRRLSTV | < -0.25
6 | SRYKLRRGFSTATDG | < -0.25
7 | SSAPGRSRVRGSDQRPPLIC | < -0.25
8 | SSAQVISPIYNW | < -0.25
9 | SSARKVVTVLSKTVEIECVK | < -0.25
10 | SSATRRPGRM | < -0.25
11 | SSCAVIEFLLD | -0.187
12 | SSCKERGSCSVRTSLSGPES | -0.241
13 | SSDA | < -0.25
14 | SSDISYSGRNLAASPLTGPG | < -0.25
15 | SSDQLRW | < -0.25
16 | SSEGDELDGRRCMTQRHV | < -0.25
17 | SSEIMERSTSRL | < -0.25
18 | SSENG | < -0.25
19 | SSER | < -0.25
20 | SSETTRRRQ | < -0.25
21 | SSFNLSHRVVKKLRRIDISR | < -0.25
22 | SSGIV | < -0.25
23 | SSGK | < -0.25
24 | SSGLQIRFF | < -0.25
25 | SSGNLQA | < -0.25
26 | SSGRPMK | < -0.25

Row | Substance | growth estimate
27 | SSGSIDLALRHTLIQMCLTP | < -0.25
28 | SSGSLGRQRCLQTAKRWYIA | < -0.25
29 | SSGVVKVLLGFSGRPELLSQ | < -0.25
30 | SSGWRMAEIVGGSYASEIAI | < -0.25
31 | SSH | < -0.25
32 | SSHEVCNGRDHPPSRPSRHP | < -0.25
33 | SSHGRNT | < -0.25
34 | SSIAVS | < -0.25
35 | SSINPTGDYL | < -0.25
36 | SSISTAPYDARLLCLRTCCS | < -0.25
37 | SSKHCIDTVSAGLNRLVITR | < -0.25
38 | SSLAMIEHSVR | < -0.25
39 | SSLDSANTHSI | < -0.25
40 | SSLER | < -0.25
41 | SSLGLSECLSVLWIGLHHRP | < -0.25
42 | SSLPVLFTFRQSIILSLA | < -0.25
43 | SSLSGVPLPPNQARRTTDSE | < -0.25
44 | SSLTPGGVACLGRHAGNAVH | < -0.25
45 | SSMQFVRPRLFDIWSIELPQ | < -0.25
46 | SSNTG | 0.106
47 | SSNV | < -0.25
48 | SSPGAKLLRPLIA | < -0.25
49 | SSPGGANESRNTF | < -0.25
50 | SSPLLFG | -0.245
51 | SSPVPHLPITDSAWSLIFSA | < -0.25
52 | SSQCKGEPDSWGVWCVSKCT | < -0.25

Taken from above:
SSQCKGEPDSWGVWCVSKCT | growth estimate: < -0.25
SSARKVVTVLSKTVEIECVK | growth estimate: < -0.25
SSCAVIEFLLD | growth estimate: -0.187
SSDISYSGRNLAASPLTGPG | growth estimate: < -0.25
SSFNLSHRVVKKLRRIDISR | growth estimate: < -0.25
SSLAMIEHSVR | growth estimate: < -0.25
SSGIV | growth estimate: < -0.25

(continued)

Row | Substance | growth estimate
53 | SSQGNRRS | < -0.25
54 | SSR | < -0.25
55 | SSRGRPKDIIGV | < -0.25
56 | SSRKLWSKCLYREQGCIFVP | < -0.25
57 | SSRLHR | < -0.25
58 | SSRQYRHRRLLEDGG | < -0.25
59 | SSRSALHGYERRPALHS | < -0.25
60 | SSSAHT | < -0.25
61 | SSSKGRSWLVAWMKVNLRHR | < -0.25
62 | SSSLGGLCNQAM | < -0.25
63 | SSSLGWELKKKG | < -0.25
64 | SSSQKLPCYEQWPLFRSSPL | -0.243
65 | SSSVFKRGGVSCGKS | < -0.25
66 | SSSVVFELVDVID | < -0.25
67 | SSSYLLPVHFVVLGYIIRRR | < -0.25
68 | SSTCFCEVI | < -0.25
69 | SSTCLGVG | < -0.25
70 | SSTRARKVYNII | < -0.25
71 | SSTRVLGHWGVSAMTKKAFC | < -0.25
72 | SSVCWKSLNKERR | < -0.25
73 | SSVFPAG | < -0.25
74 | SSVIHARPI | < -0.25
75 | SSVLG | < -0.25
76 | SSVP | < -0.25
77 | SSVSERLNQLGKLAAPTRGP | -0.246
78 | SSVSFLGRTG | < -0.25

Row | Substance | growth estimate
79 | SSVTPEQWKRR | < -0.25
80 | SSVVFTCAISGAGLFDNRWL | < -0.25
81 | SSYCQTYAARQDLAVDTPKM | < -0.25
82 | SSYTRPMELGLSQSPVISQA | < -0.25
83 | SSYVTAWIFVSPLQVWGQRH | < -0.25
84 | STA | < -0.25
85 | STACLTRVLESNAYVSRLES | < -0.25
86 | STARHPG | < -0.25
87 | STASPRRPRKYFDFVSPSEA | < -0.25
88 | STATPCWEHNIIGGKFWAVI | < -0.25
89 | STAYI | < -0.25
90 | STC | < -0.25
91 | STDMENEISHPAVGIRWPGG | 0.183
92 | STEN | < -0.25
93 | STEPKVVRSNYDRAERIWPG | < -0.25
94 | STESPIIFLRSPSGREIVTN | < -0.25
95 | STGKHSNYRDLYS | < -0.25
96 | STGLVLVG | < -0.25
97 | STGRPLVVRKWSTGPRTPHT | < -0.25
98 | STGYRPTISSPAVRSKVVIR | < -0.25
99 | STHADERSEP | < -0.25
100 | STHGPRPCKCVRP | < -0.25
101 | STHYAEFCYGISHPNPGIGC | < -0.25
102 | STKFVTCRCSVIR | < -0.25

Source: the supplement of paper PMC5949888
